# Construct, isoform or probe ends are uncertain for at least one entry. Where a protein sequence is shown, tags need not be part of it.
# Target: T1, SRP1 (Stress Associated RNA-binding protein 1 + SRZ5 in primer names), GST fusion (Arabidopsis thaliana) (UniProt Q8S8K1)
# T1 sequence (looked up, limits assumed): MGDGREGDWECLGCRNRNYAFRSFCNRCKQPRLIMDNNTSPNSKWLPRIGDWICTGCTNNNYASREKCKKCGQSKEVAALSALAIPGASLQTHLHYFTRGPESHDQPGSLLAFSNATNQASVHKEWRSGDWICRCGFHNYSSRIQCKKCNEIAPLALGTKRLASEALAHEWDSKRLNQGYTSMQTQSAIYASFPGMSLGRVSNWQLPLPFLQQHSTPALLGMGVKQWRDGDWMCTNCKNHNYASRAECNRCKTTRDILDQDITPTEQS
# Test: EMSA
# Details: shift reduced by unlabeled ABI2 3'UTR RNA; 20 mM HEPES pH 7.5, 50 mM NaCl, 5 mM 2-mercaptoethanol, 1 mM DTT, 5 uM ZnCl2, 4 mM MgCl2; 23 C, 30 min; 8% native TRIS borate gel at 4 C; recombinant protein; protein details: GST (N-terminal, pGEX-2T); label: biotin-16-UTP (internal), unlabeled as competitor
sequence,measurement,value
GGAAAAGAAGGUUUGGAAGAAAAGUGAAAAAAAAAGUUUUGAUGGUGGGUAAAAAUUCUCUUUAGUGAAAAAAGAAAGAUAAAACAACAGGUAAUAAUUACAUUGUAAUAUUAAUUUCCUGCUUAAAUUUGUUAUUUACUUUCUUAGUCUUCCCACCAUUAUCUUUUUAUAUUUAUUUUACUAACAUGAUAUAUAUAAUGUACAUGGGAAUAGUGUAACUUCCAAACAAAAAGCCCCCUUGUAUUUUUUUUUAUCUUGGGGUUAGUUGUAAUAACACUACAUUCGUCUACGUAAAUAUUUAGUGUUAUUAUUUGAUGUUU [ABI2 3'UTR RNA],binding result,binds

# Reference: publication PMC5258706
